# From PubChem BioAssay AID493014 (National Center for Advancing Translational Sciences (NCATS), 2011)
# The list shows a part of the results. Further columns of the screen follow, without active or inactive calls. The list favours compounds with an active or inconclusive main result. Potencies come from curve fits of mixed quality, noted in brackets.
# Assay: qHTS Assay to Find Inhibitors of Chronic Active B-Cell Receptor Signaling
# Settings: ABC-DLBCL IkBa-CBG/CBR reporter, luminescence ratio (green luciferase fused to IkBa over red control in TMD8 lymphoma cells), 4 h
# Procedure, shortened: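 TMD8 ABC-DLBCL cells carrying doxycycline-inducible green luciferase fused to IkappaBalpha plus unfused red luciferase were exposed to compounds (up to 46 uM) for 4 hrs at 37C. Activity came from the overlap-corrected green/red luminescence ratio.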
# [1] = measured here: CBR red luminescence, cell number
# [2] = measured here: IkBa-CBG green luminescence
Compound,AC50 [1],AC50 [2]
Cn1c(SCC(=O)Nc2ccccc2F)nc2c(c1=O)SCC2,"15.8 µM [falling, single point]",
COc1ccc(/C=N/NC(=O)COc2ccc(Cl)cc2Cl)cc1Cn1nc(C)cc1C,"16.4 µM [falling, partial curve]",
COc1ccccc1CN1CCN(Cc2ccc3ccccc3c2)CC1,"1.41 µM [rising, full curve, poor fit]",
Nc1nc2ccc(C(=O)Nc3ccc(N4CCOCC4)cc3)cc2s1,"7.31 µM [falling, partial curve]",
O=C(Nc1ccccn1)c1ccc(S(=O)(=O)N2CCCCCC2)cc1,"16.4 µM [falling, single point]",
CCC(CC)c1nc(C(N)=O)c2[nH]c(=O)n(-c3ccc(OC)c(OC)c3)c2n1,"20 µM [rising, partial curve, poor fit]",
Cc1c(NS(=O)(=O)c2ccccc2F)c(=O)n(-c2ccccc2)n1C,"6.31 µM [falling, single point]",
Cc1cc(C)n2nc(SCc3ncc(-c4ccccc4)o3)nc2n1,"3.66 µM [rising, full curve, poor fit]",
CCc1ccc(NC(=O)c2onc(C)c2Cl)cc1,"29.1 µM [falling, single point]",
CSc1ccc(/C=N/Nc2ccc(Cl)c(C(=O)O)c2)cc1,"0.891 µM [falling, full curve]",
Cc1cc(=O)[nH]c(SCCCOc2ccccc2Cl)n1,"29.1 µM [falling, single point]",
Cc1csc(Nc2nc(N)c(C(=O)Nc3ccccc3)o2)n1,"14.1 µM [falling, partial curve, poor fit]","11.2 µM [rising, partial curve, poor fit]"
Nc1[nH]ncc1-c1ccccc1,"35.5 µM [falling, single point]",
CC1=C(C(=O)OCc2ccc3c(c2)OCO3)C(c2ccccc2OCc2ccccc2)NC(=O)N1 (stereo not drawn),"25.9 µM [falling, partial curve, poor fit]",
CC1(c2ccccc2Cl)NC(=O)N(CC(=O)NC(=O)NCc2ccco2)C1=O (stereo not drawn),"0.794 µM [rising, full curve, poor fit]",
CCOC(=O)C1=C(C)N=C2SC(CC)C(=O)N2C1c1cccc(F)c1 (stereo not drawn),"9.2 µM [falling, partial curve, poor fit]",

Compound,AC50 [1],AC50 [2]
COc1cccc(CC(=O)Nc2ncc(C)s2)c1,,"17.8 µM [rising, partial curve, poor fit]"
O=C(CNC(=O)c1cc(Cl)cc([N+](=O)[O-])c1)OCC(=O)N1CCCCC1,"2.91 µM [rising, partial curve, poor fit]",
Cc1ccc(CNC(=O)COC(=O)CSc2ccc(Br)cc2C)cc1,"6.51 µM [falling, single point]",
CCC/C(O)=C1\C(=O)CCCC1=NCCc1c(C)[nH]c2ccc(OC)cc12,,"15.8 µM [rising, partial curve, poor fit]"
O=C1CCCC2=C1C(c1ccc(Cl)cc1)C1C(=O)c3ccccc3C1=N2 (stereo not drawn),"15.8 µM [falling, single point]",
Cc1cccc2nc(COc3ccc4ccccc4c3Br)cn12,"35.5 µM [falling, single point]",
FC(F)(F)c1cc(-c2ccco2)nc(N2CCN(c3ccccc3)CC2)n1,"13 µM [rising, partial curve, poor fit]",
C[C@H](NC(=O)c1[nH]cnc1C(=O)Nc1ccc(Cl)cc1)c1ccccc1,"29.1 µM [rising, single point]",
C1COCCNCCOCCOCCN1,"1 µM [falling, partial curve, poor fit]",
CCC1=NN(C(=O)c2ccc(Cl)cc2)C(O)(c2ccc(C)cc2)C1 (stereo not drawn),"10 µM [falling, partial curve]",
O=C1CSc2ccc(S(=O)(=O)N3CCN(c4ccccc4)CC3)cc2N1,"12.6 µM [falling, single point]",
CCOc1ccc2oc(C(=O)N(C)CCc3ccc(OC)c(OC)c3)c(C)c2c1,"13 µM [rising, partial curve, poor fit]",
CC(C)CCNC(=O)C1CC(c2cccc(F)c2)=NO1 (stereo not drawn),"7.94 µM [rising, partial curve, poor fit]",
COc1ccc(-c2cc(C(=O)NCC(C)C)no2)cc1,"0.291 µM [falling, full curve, poor fit]",
Cc1ccccc1-c1cc(C(=O)Nc2nc3c(s2)CCCC3)c2ccccc2n1,"7.08 µM [falling, partial curve, poor fit]",
O=C(/C=C/c1ccc(S(=O)(=O)N2CCOCC2)cc1)NC(=S)Nc1ccc(Cl)cc1Cl,"14.1 µM [rising, partial curve, poor fit]",

# Another view of two compounds above.
Compound | AC50 [1] | AC50 [2]
CCC/C(O)=C1\C(=O)CCCC1=NCCc1c(C)[nH]c2ccc(OC)cc12 |  | 15.8 µM [rising, partial curve, poor fit]
O=C(/C=C/c1ccc(S(=O)(=O)N2CCOCC2)cc1)NC(=S)Nc1ccc(Cl)cc1Cl | 14.1 µM [rising, partial curve, poor fit] | 
